Results reported in patent publication US4657891A, “Diuretic peptide, and production and use thereof” (Suntory Limited, priority 1984, dated 1987).
Part of at least one peptide drawing is inferred or uncertain, most often the ends. Bridge positions count the residues as written; N and C are the ends. Ends that are not written are not given here.

Columns and labels:
Male rats [1] = assay: Diuretic and natriuretic test in anesthetized rats, urine collected before and 5 minutes after jugular vein injection (Table 2); assay type: in vivo, rat; conditions: for Na/K ratio B / Cl^- Excretion B / K^+ Excretion B / Na^+ Excretion B: B: 30 minutes before administration; for Urine volume B: B: sample collected 30 minutes before administration; for Urine volume A: A: sample collected 5 minutes after administration
Experimental: To keep the respiratory tract open, a tracheal cannula (PE-240 Clay-Adams) was inserted into the trachea. An arterial cannula (PE-50) was inserted into a femoral artery for measurement of the blood pressure, and a venous cannula was inserted into a femoral vein for the administration of Ringer's solution.
The collection of urine was carried out for 30 minutes before administration of the test compound, and every five minutes after the administration.
The control group (group I) was administered 50 μl of physiological saline containing only bacitracin.

Male rats [2] = assay: Another test: relative amounts of urine, Na+, K+, Cl- for 30 minutes before and after administration (Table 3); assay type: in vivo, rat
chick rectum = assay: Chick rectum relaxation activity
[3] = 0.8 n mole of β-rANP, jugular vein, rat
[4] = β-rANP 0.4 n mole (group II), A: 5 minutes after administration
[5] = β-rANP 0.8 n mole (group III), A: 5 minutes after administration
[6] = β-rANP 0.4 n mol, 30 minutes before and after
[7] = β-rANP 0.8 n mol, 30 minutes before and after

PSDRSALLKSKLRALLAGPRSLRRSSCFGGRIDRIGAQSGLGCNSFRY (disulfide 27-43) [β-rANP, β-rat atrial natriuretic polypeptide]
diuretic and natriuretic action relative to 1.21μ mole of furosemide (Male rats [1]; 0.8 n mole of β-rANP injected into the jugular vein of a rat): comparable
increase in the sodium excretion (Male rats [1]; [3]): ~18 fold
increase in the urination volume (Male rats [1]; [3]): ~14 fold
speed of diuretic and natriuretic actions (FIG. 1) (Male rats [1]; changes in urination volume and Na+, K+, Cl- excretions after administration): more rapidly than furosemide
hypotensive or antihypertensive action (Male rats [1]; rat, in vivo): notable
Na/K ratio A (Male rats [1]; urine, β-rANP 0.4 n mole (group II), A: 5 minutes after administration): 0.85
Na/K ratio B (Male rats [1]; urine, β-rANP 0.4 n mole (group II)): 0.45
Na/K ratio B (Male rats [1]; urine, β-rANP 0.8 n mole (group III)): 0.31
Urine volume B (Male rats [1]; β-rANP 0.4 n mole (group II), jugular vein): 5.98 ± 1.61 µL/min
Cl^- Excretion A (Male rats [1]; [4]): 9972 ± 1756 n eq/min
K^+ Excretion A (Male rats [1]; [4]): 11269 ± 1254 n eq/min
Na^+ Excretion A (Male rats [1]; [4]): 9584 ± 795 n eq/min
Urine volume A (Male rats [1]; β-rANP 0.4 n mole (group II)): 55.8 ± 3.4 µL/min
Cl^- Excretion B (Male rats [1]; β-rANP 0.4 n mole (group II)): 1532 ± 680 n eq/min
K^+ Excretion B (Male rats [1]; β-rANP 0.4 n mole (group II)): 2154 ± 322 n eq/min
Na^+ Excretion B (Male rats [1]; β-rANP 0.4 n mole (group II)): 967 ± 301 n eq/min
Cl^- Excretion A (Male rats [1]; [5]): 16597 ± 6107 n eq/min
K^+ Excretion A (Male rats [1]; [5]): 10825 ± 4099 n eq/min
Na^+ Excretion A (Male rats [1]; [5]): 13539 ±5582 n eq/min
Urine volume A (Male rats [1]; β-rANP 0.8 n mole (group III)): 68.2 ± 30.1 µL/min
Cl^- Excretion B (Male rats [1]; β-rANP 0.8 n mole (group III)): 1283 ± 117 n eq/min
K^+ Excretion B (Male rats [1]; β-rANP 0.8 n mole (group III)): 2409 ± 296 n eq/min
Na^+ Excretion B (Male rats [1]; β-rANP 0.8 n mole (group III)): 749 ± 100 n eq/min
Urine volume B (Male rats [1]; β-rANP 0.8 n mole (group III)): 4.97 ± 0.85 µL/min
activities relative to furosemide on the mole base (Male rats [2]; Table 3): ~1000 times
activities relative to α-hANP (Male rats [2]; Table 3): comparable to those of α-hANP
Cl^- Excretion, percentage after relating to before (Male rats [2]; [6]): 524 ± 147%
K^+ Excretion, percentage after relating to before (Male rats [2]; [6]): 162 ± 23%
Na^+ Excretion, percentage after relating to before (Male rats [2]; [6]): 663 ± 151%
Urine volume, percentage of the amount after the administration relating to the amount before (Male rats [2]; β-rANP 0.4 n mol, samples for 30 minutes before and after administration): 562 ± 155%
Cl^- Excretion, percentage after relating to before (Male rats [2]; [7]): 662 ± 38%
K^+ Excretion, percentage after relating to before (Male rats [2]; [7]): 158 ± 15%
Na^+ Excretion, percentage after relating to before (Male rats [2]; [7]): 911 ± 119%
Urine volume, percentage after relating to before (Male rats [2]; [7]): 667 ± 29%
chick rectum relaxation activity (chick rectum): has this activity
